According to patent publication US20250145571A1, “AMINO ACID PRODRUGS OF NICORANDIL” (Unicycive Therapeutics, Inc., priority 2023, published 2025):
Some results were stated once for a whole list of compounds, not compound by compound.

Test: Pharmacokinetic study in rats, single oral dose
Conditions: rat, citrate buffer, compared to the nitrate salt of compound 8 of WO 2020/190890

Levels of nicorandil released after oral dosing (in words), released higher levels of nicorandil:
Cc1oc(=O)oc1C[n+]1cccc(C(=O)NCCO[N+](=O)[O-])c1.[Cl-] [Compound 12]
CCC(C)(C)C(=O)OC[n+]1cccc(C(=O)NCCO[N+](=O)[O-])c1.[Cl-] [Compound 11]
CCCCCCCCCCCC(=O)OC[n+]1cccc(C(=O)NCCO[N+](=O)[O-])c1.[Cl-] [Compound 10]
